This experiment has as its target cathepsin Z (mouse (endogenous in testis)) (UniProt Q9WUU7). The experiment in a line: co-IP; antibody against the partner (anti-STX7, anti-LYZL4, anti-MAP1B, anti-Cathepsin Z, anti-AP1M1, anti-AP2B1, anti-AP3D1; rabbit or mouse control) on protein G beads; mouse testis homogenate in 125 mM KCl, 10 mM EDTA, 20 mM HEPES pH 7.2, supernatant with 1% NP-40 alternative; Western blot for inceptor. On the technique in general: In western blotting, separated proteins are transferred to a membrane and probed.

Sequences of proteins named here, by UniProt entry; tags and fusion partners are left off. A change or cut given only in a name is not applied to a line headed by its entry.
UniProt Q9WUU7: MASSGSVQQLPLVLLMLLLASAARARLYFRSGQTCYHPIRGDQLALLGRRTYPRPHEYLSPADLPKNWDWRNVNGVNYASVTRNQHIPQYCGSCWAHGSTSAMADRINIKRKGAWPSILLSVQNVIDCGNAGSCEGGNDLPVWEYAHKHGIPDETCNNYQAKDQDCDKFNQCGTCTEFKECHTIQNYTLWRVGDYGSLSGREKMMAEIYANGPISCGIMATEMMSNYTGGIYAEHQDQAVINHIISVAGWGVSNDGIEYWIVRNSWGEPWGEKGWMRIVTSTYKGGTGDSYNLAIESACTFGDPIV

These are yes or no findings as the source states them, for the method shown. In cells and extracts the contact can be indirect. A result given as binding can be weak or reduced; the word gives no strength.

B1: insulin inhibitory receptor (inceptor) (receptor, UniProt A2AFS3 36-1009)
chain: FQVTLGTGPELHACKESEYHFEYTACDSTGSRWRVAVPHSPGLCTSLPDPVKGTECSFSCNAGEFLDMKDQSCKPCAEGRYSLGTGIRFDEWDELPHGFASLSANLEVDDSISESTENCTSSKWVPRGDYIASNTDECTATLMYAVNLKQSGTVNFEYYYPDSSIIFEFFVQNDQCQPSADDSRWMKTTEKGWVELNRGNNVLYWRTTAFSVWSKVSKPVLVRNIAITGVAYTSECFPCKPGTYAAKQGSPFCKLCPANYYSNKGETSCHPCDADKYSEKGSSTCKVRPACTDKDYFYTHTACDAQGETQLMYKWAIPKICGEDLEGAVKLPASGVKTRCPPCNPGFFKTDNSTCEPCPYGSYSNGSDCTHCPAGTEPAVGFEYKWWNTLPSNMETTVLSGINFEYKGLTGWEVAGDHIYTAVGASDNDFMILTLVVPGFRPPQSVVADTENKEVARITFVFETICSVNCELYFMVGMNSRTNTPVETWKGTKGKQSYTYTIEENATVSFTWAFQRTTLHETGRKYTNDVAKIYSINVTNVMGGVASYCRPCALEASDLGSSCTSCPAGHYINRDSGTCHLCPSNTILKAHQPYGAQACVPCGPGTKNNKIHSLCYNDCTFSRNTPSRIFNYNFSALAGTVSLAGVPSFTSKGLKYFHHFTLSLCGNQGKKMAVCTDNVTDLRIPDGEAGFSKSVTAYVCQVVIIPSEVMGYKAGVSSQPVSLADRLVGVSTDMTLEGIVSPVELFHPETSGIPDIVFFFRSNDVTQSCSSGRSTTIRLRCNPMKAAPGTLRLPSMCSDGTCDGCNFHFLWESVAACPLCSASDYHTFVSSCVAGIQKTTYMWREPKLCSGGISLPEQRVTICKTIDFWLKVGISAGTCTAILLTVLTCYFWKKNQKLEYKYSKLVMNATLKDCDLPAADSCAIMEGEDVEDDFIFTSKKSLFGKIKSFTSKRTPDGFDSVPLKTSSGGPDMDM
For the molecule B1, the binding entry is “binds”.

The values are drawn from publication PMC10483240.
